Tested on: fracture callus of fractured femur
Assay: Femur fracture model, microCT of the fracture callus (BV/TV, BV, TbTh, TbSp)
Type: in vivo, Swiss Webster mice
Settings: 4 weeks, various concentrations (1, 10 and in part 100 nmol/day), subcutaneous daily
From the text: All in vivo data included herein are from Swiss Webster mice. […] 1×concentration represents 1 nmol/day, 10× represents 10 nmol/day, 100×represents 100 nmol/day and most studies have an n of 5.
The term “BV/TV” means the bone volume divided by total volume of the 100 thickest micro CT slices of the fracture callus.
The term “TbTh” means the trabecular thickness of the 100 thickest micro CT slices of the fracture callus.
The term “[…]” means the overall bone volume of the 100 thickest micro CT slices of the fracture callus.
The term “TbSp” means the spacing between the trabecula in the 100 thickest micro CT slices of the fracture callus.
The targeted conjugates were synthesized using standard Fmoc solid-phase peptide synthesis, as described above. […] Expression levels of ALP, RUNx2, OSX, osteo-pontin (OPN), collagen 1A (Col-1A), OPG, RANKL, scle-rostin gene (SOST), and OC were quantified via quantitative reverse transcription polymerase chain reaction (RT-qPCR). […] Fracture healing was assessed using microCT (Scanco Medical Ag). Morphometric parameters were quantified in the 100 widest slices of the fracture callus. Trabecular thickness (TbTh), trabecular spacing (TbSp), total volume (TV), and volume of calcified callus (BV) were calculated. […]

Substance: TP508 D10: Thrombin fragment TP508 conjugated with 10 aspartate acids, SEQ ID NO: 12, DDDDDDDDDDAGYKPDEGKRGDACEGDSGGPFV (10 aspartates)
- BV/TV: dose dependent manner

From US12319721B2 (Purdue Research Foundation, priority 2018, dated 2025)
